PubChem BioAssay AID1159578 | Peter MacCallum Cancer Centre | 2015

Assay: 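siRNA pools altering how lymphatic endothelial cells close a scratch wound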 (primary screen)
System: human lymphatic endothelial cells
Reagents: siRNA pool against human genes, 40 nM
Timing: 48 h after transfection
Measurement: 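High-content imaging of dye-stained cells in a scratch assay measures filled wound area and nuclei per well; duplicate means given as ratio to mock and robust z-score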
Reading the numbers: migration robust z-score: higher = faster migration into the scratch; migration relative to mock: higher = more scratch area covered than mock; nuclei per well: higher = more cells in the well
Rule for the call: 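Migration changed when robust z exceeds 2 or falls below -2 and mean nuclei number is at least 3300; otherwise not called changed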
Calls: active = migration changed; inactive = no migration change, or too few cells
The deposit covers about 18,000 reagents; this is a part drawn at random. Of all reagents, about 1,030 (5.7%) got an active call. 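Inactive calls also include pools with fewer than 3300 nuclei, whose migration was not assessed.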 Raw values vary from plate to plate and are shown uncorrected.

gene symbol	migration robust z-score	migration class with cell-count check	migration relative to mock	nuclei per well, duplicate mean	call
GFI1B (GeneID 8328)	-0.37	migration z between -2 and 2; enough cells	0.79	5668	inactive
VSIG10 (GeneID 54621)	1.08	migration z between -2 and 2; enough cells	1.17	6627	inactive
SNRNP70 (GeneID 6625)	-0.69	migration z between -2 and 2; enough cells	0.7	6196	inactive
NEUROD1 (GeneID 4760)	-0.31	migration z between -2 and 2; enough cells	0.74	4724	inactive
SLC16A8 (GeneID 23539)	-0.29	migration z between -2 and 2; enough cells	0.75	4507	inactive
LYRM9 (GeneID 201229)	0.54	migration z between -2 and 2; enough cells	1.02	3961	inactive
MAPK9 (GeneID 5601)	-1.77	migration z between -2 and 2; enough cells	0.46	4506	inactive
PCDHA11 (GeneID 56138)	-1.04	migration z between -2 and 2; enough cells	0.61	3538	inactive
WWOX (GeneID 51741)	0.52	migration z between -2 and 2; enough cells	0.9	5934	inactive
WNK4 (GeneID 65266)	-0.6	migration z between -2 and 2; enough cells	0.69	6003	inactive
PDLIM2 (GeneID 64236)	0.16	migration z between -2 and 2; enough cells	0.92	6032	inactive
MRPL1 (GeneID 65008)	-0.43	migration z between -2 and 2; enough cells	0.78	5700	inactive
KMT2E (GeneID 55904)	0.08	migration z between -2 and 2; enough cells	0.82	4934	inactive
NFATC3 (GeneID 4775)	0.88	migration z between -2 and 2; enough cells	0.98	6100	inactive
CNTNAP4 (GeneID 85445)	0.16	migration z between -2 and 2; enough cells	0.92	6356	inactive
PHF13 (GeneID 148479)	0.31	migration z between -2 and 2; enough cells	0.86	4782	inactive
JTB (GeneID 10899)	2.08	migration z above 2; enough cells	1.42	6108	active
GSTM2 (GeneID 2946)	-0.5	migration z between -2 and 2; enough cells	0.71	5326	inactive
JMJD7-PLA2G4B (GeneID 8681)	0.34	migration z between -2 and 2; enough cells	0.87	4896	inactive
DDX12P (GeneID 440081)	0.05	migration z between -2 and 2; enough cells	0.82	6207	inactive
GOLGA7 (GeneID 51125)	0.54	migration z between -2 and 2; enough cells	1.03	6079	inactive
TPX2 (GeneID 22974)	-0.38	under 3300 nuclei; migration not judged	0.78	3125	inactive
ENGASE (GeneID 64772)	-2.18	under 3300 nuclei; migration not judged	0.38	2590	inactive
WDCP (GeneID 80304)	0.75	migration z between -2 and 2; enough cells	1.08	5740	inactive
SLC25A38 (GeneID 54977)	1.51	migration z between -2 and 2; enough cells	1.27	4727	inactive
UTP3 (GeneID 57050)	0.06	migration z between -2 and 2; enough cells	0.9	5523	inactive
CSDE1 (GeneID 7812)	-0.72	migration z between -2 and 2; enough cells	0.66	6005	inactive
NME8 (GeneID 51314)	0.62	migration z between -2 and 2; enough cells	0.92	6150	inactive
SCML4 (GeneID 256380)	0.32	migration z between -2 and 2; enough cells	0.97	4372	inactive
PAICS (GeneID 10606)	-0.34	migration z between -2 and 2; enough cells	0.74	5550	inactive
GPR31 (GeneID 2853)	-0.86	migration z between -2 and 2; enough cells	0.64	4686	inactive
EGFL6 (GeneID 25975)	-0.41	migration z between -2 and 2; enough cells	0.78	5013	inactive
EBPL (GeneID 84650)	0.8	migration z between -2 and 2; enough cells	0.96	6088	inactive
BEND6 (GeneID 221336)	0.05	migration z between -2 and 2; enough cells	0.9	5595	inactive
SBF2 (GeneID 81846)	-1.31	migration z between -2 and 2; enough cells	0.54	5961	inactive
RGS20 (GeneID 8601)	-0.48	migration z between -2 and 2; enough cells	0.76	5830	inactive
IGF2BP3 (GeneID 10643)	-0.8	migration z between -2 and 2; enough cells	0.68	5904	inactive

Part of the list above, reformatted:
| gene symbol | migration robust z-score | migration class with cell-count check | migration relative to mock | nuclei per well, duplicate mean | call |
| --- | --- | --- | --- | --- | --- |
| SLC16A8 (GeneID 23539) | -0.29 | migration z between -2 and 2; enough cells | 0.75 | 4507 | inactive |
| LYRM9 (GeneID 201229) | 0.54 | migration z between -2 and 2; enough cells | 1.02 | 3961 | inactive |
| MAPK9 (GeneID 5601) | -1.77 | migration z between -2 and 2; enough cells | 0.46 | 4506 | inactive |
| PCDHA11 (GeneID 56138) | -1.04 | migration z between -2 and 2; enough cells | 0.61 | 3538 | inactive |

More records:
gene symbol	migration robust z-score	migration class with cell-count check	migration relative to mock	nuclei per well, duplicate mean	call
THEMIS2 (GeneID 9473)	0.84	migration z between -2 and 2; enough cells	1.1	5897	inactive
CLIC1 (GeneID 1192)	-2.21	migration z below -2; enough cells	0.38	4870	active
KRTAP17-1 (GeneID 83902)	-0.99	migration z between -2 and 2; enough cells	0.62	4938	inactive
MYO1D (GeneID 4642)	0.34	migration z between -2 and 2; enough cells	0.98	6891	inactive
ABCC2 (GeneID 1244)	0.28	migration z between -2 and 2; enough cells	0.86	5887	inactive
GPM6A (GeneID 2823)	-1.22	migration z between -2 and 2; enough cells	0.57	6526	inactive
GNB1 (GeneID 2782)	-1.06	migration z between -2 and 2; enough cells	0.6	5013	inactive
THSD4 (GeneID 79875)	-3.65	migration z below -2; enough cells	-0.04	4284	active
RHOH (GeneID 399)	0.02	migration z between -2 and 2; enough cells	0.89	6735	inactive
GJA8 (GeneID 2703)	0.83	migration z between -2 and 2; enough cells	0.97	6108	inactive
KCNJ5-AS1 (GeneID 219833)	-0.76	migration z between -2 and 2; enough cells	0.69	5653	inactive
OPN4 (GeneID 94233)	0.68	migration z between -2 and 2; enough cells	0.94	5008	inactive
ASPSCR1 (GeneID 79058)	0.3	migration z between -2 and 2; enough cells	0.97	6003	inactive
ZFR2 (GeneID 23217)	0.39	migration z between -2 and 2; enough cells	0.99	4944	inactive
COLEC12 (GeneID 81035)	0.58	migration z between -2 and 2; enough cells	1.04	5714	inactive
SAMD3 (GeneID 154075)	0.48	migration z between -2 and 2; enough cells	1.01	5799	inactive
CPA3 (GeneID 1359)	-1.55	migration z between -2 and 2; enough cells	0.5	5142	inactive
PGLYRP2 (GeneID 114770)	-0.94	migration z between -2 and 2; enough cells	0.62	5296	inactive
FMO5 (GeneID 2330)	0.52	migration z between -2 and 2; enough cells	0.9	5660	inactive
MAPK6 (GeneID 5597)	-1.5	migration z between -2 and 2; enough cells	0.52	3826	inactive
HP1BP3 (GeneID 50809)	1.4	migration z between -2 and 2; enough cells	1.25	5878	inactive
PRMT1 (GeneID 3276)	-1.82	migration z between -2 and 2; enough cells	0.45	5854	inactive
CA8 (GeneID 767)	-0.78	migration z between -2 and 2; enough cells	0.66	4786	inactive
TSPYL6 (GeneID 388951)	0.99	migration z between -2 and 2; enough cells	1.14	6370	inactive
TMEM190 (GeneID 147744)	-0.08	migration z between -2 and 2; enough cells	0.86	6474	inactive
ANKIB1 (GeneID 54467)	0.57	migration z between -2 and 2; enough cells	0.92	5691	inactive
IK (GeneID 3550)	-1.51	migration z between -2 and 2; enough cells	0.5	4070	inactive
PTPN11 (GeneID 5781)	0.44	migration z between -2 and 2; enough cells	0.89	5834	inactive
SUPT5H (GeneID 6829)	0.16	migration z between -2 and 2; enough cells	0.84	5341	inactive
TM2D2 (GeneID 83877)	-1.4	migration z between -2 and 2; enough cells	0.52	5215	inactive
MSI2 (GeneID 124540)	-0.11	migration z between -2 and 2; enough cells	0.86	4935	inactive
SH3GL3 (GeneID 6457)	0.68	migration z between -2 and 2; enough cells	1.06	4844	inactive
TOM1 (GeneID 10043)	-2.08	migration z below -2; enough cells	0.4	5044	active
MAG (GeneID 4099)	-1.25	migration z between -2 and 2; enough cells	0.56	5786	inactive
RSAD2 (GeneID 91543)	-0.64	migration z between -2 and 2; enough cells	0.68	4026	inactive
POLR2B (GeneID 5431)	-1.01	migration z between -2 and 2; enough cells	0.61	5552	inactive
